Reference: PubChem BioAssay AID2685 (National Center for Advancing Translational Sciences (NCATS), 2010)
The whole screen tested about 320,000 compounds, of which about 2,100 (0.66%) were called active. The inconclusive results got no clear call from the source; some entries with a clear call stand among them for comparison. Calls follow the shape of the dose curve; as a rule, active = well fitted inhibition curve with a large enough effect in the signal ratio, with a control signal flat (not every such curve was filed as active); inconclusive = small, poorly fitted or top-dose-only effect, or effect the other way, or a change in a side signal; inactive = flat fitted curve, though single readings scatter; the % refers to the signal ratio. A potency beside an inconclusive call is a rough fit, not a confirmed value.

assay: qHTS Assay for Lipid Storage Modulators in Drosophila S3 Cells; conditions: BODIPY lipid droplet fluorescence, 18-24 h, cells fed with added oleic acid; lipid storage change, negative = inhibition: at 46.1 µM (top of the series) unless noted
Procedure, shortened: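 Laser-scanning cytometry quantifies lipid droplet accumulation (500–530 nm total intensity; droplet/cell object ratio) in oleic acid-fed (400 uM added) Drosophila S3 cells treated with a concentration series. 20 uM Triacsin C defined 100% inhibition.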
% is scaled to controls: 0 for no effect and ±100 for the full control effect; potency is read from the fitted curve at half-maximal effect.

Lipid storage change, negative = inhibition, inconclusive:
CCCNC(=O)N1CCC(Cc2ccccc2)CC1 0.451%
CCOC(=O)c1c(-c2ccccc2)c(C(C)=O)c(=O)n(C)c1C -9.92%
CC(=O)c1ccc(-c2ccc(C(=O)N(C)c3c(N)n(Cc4ccccc4)c(=O)[nH]c3=O)o2)cc1 20.7%
COc1ccc(OCC(=O)N/N=C/c2cccn2-c2cccc(C(=O)O)c2)cc1
CCOC(=O)c1[nH]c2ccccc2c1N=CN(CC)CC 20.1%
CCN1CCN(Cc2ccc(NC(=O)c3cc(NC(=O)c4cc(C)on4)cc(OC)c3)cc2C(F)(F)F)CC1 -18.1%
O=C(O)CN1C(=O)C(=O)N(Cc2ccc(Cl)cc2Cl)C1=O 8.73%
Cc1ccc(S(=O)(=O)c2nc(-c3ccco3)oc2NCC2CCCO2)cc1 (centres undefined) -7.29%
O=C(NCCc1ccc2c(c1)OCCO2)c1cc(F)cc(F)c1 -20%
Cc1nc(C)c(C(=O)OCC(=O)NCCc2ccc(F)cc2)s1
CC1CCN(C(C)C(=O)Nc2cc(S(=O)(=O)N3CCCCC3)ccc2Cl)CC1 (centres undefined) -69.6%
COc1cc(C(C(=O)NC2CCCC2)N(Cc2ccccc2)C(=O)c2snc(C(N)=O)c2N)ccc1O (centres undefined) 18%
Cc1ccc(NC(=O)CN2CCCCCC2)c(Br)c1 5.27%
O=C(O)CNc1ccccc1C(=O)O 10.5%
CCC(NS(=O)(=O)c1ccc(OC)cc1)C(=O)NCCc1ccccc1 (centres undefined) -27.1%
NS(=O)(=O)c1ccc(CCNC(=O)CSc2nnc3ccccn23)cc1 -21.9%
COc1ccccc1NS(=O)(=O)c1cccc(NC(=O)C2CC2)c1 -23.6%
CCN1CCCC1CN(Cc1cc2ccc(C)cc2[nH]c1=O)C(=S)Nc1cccc(OC)c1 (centres undefined) 23.1%
O=C(Nc1ccc(S(=O)(=O)NC2=NCCCCC2)cc1)c1ccc(C(F)(F)F)cc1 -12.3%
CCOC(=O)CNC(=O)CCNS(=O)(=O)c1ccc2c(c1)c(=O)n(C)c(=O)n2C 4.49%
CC(=O)N(c1c(C)n(C)n(-c2ccccc2)c1=O)C1(C(=O)NC2CCCCC2)CCCCC1 -135%
CCOC(=O)c1cc(-c2ccccc2)n(CCC(=O)N2CCN(c3ccccn3)CC2)c1C -7.9%
O=C(CC1C(=O)NCCN1Cc1ccccc1C(F)(F)F)NCCN1CCOCC1 (centres undefined) 24.1%
O=C(c1cccs1)N1CCc2ccccc21 44.1%
CC(C)CNC(CC(=O)Nc1cccc([N+](=O)[O-])c1)C(=O)O (centres undefined) 8.94%
Cc1ccc(S(=O)(=O)C(C#N)c2nc3ccccc3nc2N2CCN(C)CC2)cc1C (centres undefined) 6.49%
Cc1ccc(C)c(CN2C(=O)COc3ccc(C(=O)c4ccccc4C(=O)O)cc32)c1 18.8%
Fc1ccc(SCCc2ccncc2)cc1 330%
CC1CCCCC1NC(=O)COC(=O)C12CC3CC(CC(Cl)(C3)C1)C2 (centres undefined) -21%

Fetched by structure from the entries so far (four):
Lipid storage change, negative = inhibition, inconclusive:
Cc1nc(C)c(C(=O)OCC(=O)NCCc2ccc(F)cc2)s1
O=C(CC1C(=O)NCCN1Cc1ccccc1C(F)(F)F)NCCN1CCOCC1 (centres undefined) 24.1%
COc1ccccc1NS(=O)(=O)c1cccc(NC(=O)C2CC2)c1 -23.6%
O=C(O)CNc1ccccc1C(=O)O 10.5%

Following part.

Lipid storage change, negative = inhibition, inactive:
O=C(COC(=O)CCOc1ccccc1)NCCC1=CCCCC1 10.3%
COc1cccc(NC(=O)Cn2c3ccccc3c3nc4n(c(=O)c32)CCCS4)c1 -0.494%

Potency, inconclusive:
O=C(Nc1cccc(Br)c1)c1ccn[nH]1 18.4 µM [falling, single point]
COc1ccc(-c2ccc3c(c2)S(=O)(=O)c2cccc(C(=O)NC4CCCC4)c2C3=O)cc1OC 29.1 µM [falling, single point]
O=C(Nc1nnc(C2CCCO2)s1)c1ccc(Br)cc1 (centres undefined) 0.0058 µM [falling, full curve, poor fit]
Cc1cc(C)n2nc(S(=O)(=O)N(C)c3ccccc3)nc2n1 9.2 µM [activator, partial curve]
C#CCOCCOCCOCCNc1nc(N2CCN(C(=O)[C@H]([C@@H](C)O)n3cc(CCCCN)nn3)CC2)nc(N2CCN(C(=O)[C@H](CCCCN)n3cc(CCCC)nn3)CC2)n1 5.8 µM [activator, full curve]
CCCCn1nnnc1NCc1ccc(C)cc1 1.64 µM [falling, partial curve, poor fit]
O=C(CCSc1nc(-c2ccco2)cc(C(F)(F)F)n1)NCC1CCCO1 (centres undefined) 8.2 µM [activator, partial curve]
O=C(NC1CCCCC1)c1cccs1 29.1 µM [activator, single point]
O=c1c(Cl)nc2cc(Cl)ccc2n1CCNc1ncc(C(F)(F)F)cc1Cl 6.51 µM [falling, partial curve]
CC(C)(C)OC(=O)NC1CC2CCCC(C1)N2Cc1ccccc1 (centres undefined) 29.1 µM [activator, single point]
CC1(C)Cc2ccccc2-c2nc(NCCCO)n(-c3ccccc3)c(=O)c21 16.4 µM [activator, single point]
C[C@H]1CN=C(N(C)C)N1CCCCc1ccccc1 8.2 µM [activator, partial curve]
CC(=O)N1C(c2ccccc2O)C[C@]2(C)CC(=O)NC12 (some centres undefined) 32.6 µM [falling, single point]
O=[N+]([O-])c1cccc(OCC(O)CN2CCN(S(=O)(=O)c3cc(Cl)ccc3Cl)CC2)c1 (centres undefined) 10.3 µM [falling, partial curve, poor fit]

Potency, active:
C=CCOc1ccccc1CN(C(=O)CCl)c1ccc2c(c1)OCO2 9.2 µM
CC(=O)Nc1ccc(Nc2nc(-c3sc(NC(C)=O)nc3C)cs2)cc1 20.6 µM

outcome, inactive:
COc1ccc(C(c2c(NC(=O)c3ccco3)sc(C)c2C)N2CCOCC2)cc1 (centres undefined) inactive [at 46.1 µM]
Cc1onc(-c2ccccc2Cl)c1C(=O)N1CCC(C)CC1 inactive [at 46.1 µM]
